According to article PMC8677339:
No constants are given. Whether binding was seen depends on the method and setting. In cells and extracts the contact can be indirect. Some results given as binding are weak or reduced against the parent protein; the word gives no strength.

Amino acid sequences for entries named in this document (tags omitted). Residues count along the entry.
UniProt Q9UN70, residues 32-934: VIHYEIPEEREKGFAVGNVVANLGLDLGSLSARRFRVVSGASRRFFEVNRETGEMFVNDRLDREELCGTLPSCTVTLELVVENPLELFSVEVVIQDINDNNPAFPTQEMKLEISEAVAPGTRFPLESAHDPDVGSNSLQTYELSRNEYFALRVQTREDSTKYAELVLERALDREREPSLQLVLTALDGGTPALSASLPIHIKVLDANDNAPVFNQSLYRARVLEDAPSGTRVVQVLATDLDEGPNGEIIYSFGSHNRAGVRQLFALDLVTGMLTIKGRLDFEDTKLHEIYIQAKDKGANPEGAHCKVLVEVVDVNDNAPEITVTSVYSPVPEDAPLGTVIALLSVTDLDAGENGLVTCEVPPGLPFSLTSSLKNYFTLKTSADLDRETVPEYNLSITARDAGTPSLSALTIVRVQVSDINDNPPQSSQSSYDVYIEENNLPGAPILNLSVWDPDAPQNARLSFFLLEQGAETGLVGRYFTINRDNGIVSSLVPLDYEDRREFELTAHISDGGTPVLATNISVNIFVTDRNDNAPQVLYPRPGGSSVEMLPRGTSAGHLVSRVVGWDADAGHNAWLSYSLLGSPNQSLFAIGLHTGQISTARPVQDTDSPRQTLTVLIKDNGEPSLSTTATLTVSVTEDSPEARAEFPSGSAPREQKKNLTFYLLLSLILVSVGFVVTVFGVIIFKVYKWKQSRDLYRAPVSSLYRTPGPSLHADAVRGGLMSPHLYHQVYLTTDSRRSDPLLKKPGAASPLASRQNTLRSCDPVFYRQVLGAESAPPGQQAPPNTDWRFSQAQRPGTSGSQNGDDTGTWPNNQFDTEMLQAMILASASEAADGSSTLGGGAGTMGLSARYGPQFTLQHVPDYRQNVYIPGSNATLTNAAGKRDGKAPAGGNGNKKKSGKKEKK

T1: occludin (UniProt Q16625)
T1 sequence: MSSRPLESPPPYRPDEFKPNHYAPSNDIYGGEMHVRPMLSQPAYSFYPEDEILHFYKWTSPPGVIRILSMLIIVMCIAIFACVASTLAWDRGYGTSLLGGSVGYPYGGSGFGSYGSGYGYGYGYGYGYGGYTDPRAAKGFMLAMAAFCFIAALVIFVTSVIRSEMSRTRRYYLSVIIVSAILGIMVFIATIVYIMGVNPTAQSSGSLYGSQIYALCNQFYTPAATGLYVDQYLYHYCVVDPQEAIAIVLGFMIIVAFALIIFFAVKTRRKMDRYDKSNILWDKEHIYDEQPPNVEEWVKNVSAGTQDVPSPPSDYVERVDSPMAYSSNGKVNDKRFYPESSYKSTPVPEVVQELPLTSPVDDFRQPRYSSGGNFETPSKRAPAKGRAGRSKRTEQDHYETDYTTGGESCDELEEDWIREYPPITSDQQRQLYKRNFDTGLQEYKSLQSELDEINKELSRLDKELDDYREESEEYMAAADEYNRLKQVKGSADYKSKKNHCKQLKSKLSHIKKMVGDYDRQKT

T2: claudin-5 (bovine (endogenous in primary bovine retinal endothelial cells)) (UniProt Q2HJ22)
T2 sequence: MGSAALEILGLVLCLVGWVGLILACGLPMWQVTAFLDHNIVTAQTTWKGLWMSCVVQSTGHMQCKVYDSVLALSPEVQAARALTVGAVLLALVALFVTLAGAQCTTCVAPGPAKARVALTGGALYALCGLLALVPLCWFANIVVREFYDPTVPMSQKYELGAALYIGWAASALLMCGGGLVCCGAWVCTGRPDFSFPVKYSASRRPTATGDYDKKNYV


Assays:
occludin = target: T1, occludin; experiment: co-IP; cDNAs of PCDHGC3 and occludin co-transfected into mammalian cells; immunoprecipitated with anti-occludin antibody; Western blot; non-immunoprecipitated cell lysate as control
[1] = target: T2, claudin-5 (bovine (endogenous in primary bovine retinal endothelial cells)); experiment: co-IP; co-immunoprecipitation of endogenous protein in primary bovine retinal endothelial cells (BREC); interaction most abundant with VEGF/norrin co-stimulation

| binding (occludin) | binding [1] | Molecule |
| --- | --- | --- |
| binds | – | protocadherin gamma C3 (PCDHGC3) (from UniProt Q9UN70 32-934) |
| – | binds | disheveled-1 (Dvl1) (protein, UniProt F1N6M9 1-647) MPSCPASTAVWSPGWFWLRVLTRMQGLRALMDTQTCPRLLSGQVASGTPGLPPSTRMWPAAAMGWITRLARSHWSATGGSEPDAGTVKRGIPWPGPVPAVPTAARTNGHPRGDRRRDLGLPPDSASTVLSSELESSSFIDSDEDDNTSRLSSSTEQSTSSRLIRKHKRRRRKQRLRQTDRASSFSSITDSTMSLNIITVTLNMERHHFLGISIVGQSNDRGDGGIYIGSIMKGGAVAADGRIEPGDMLLQVNDVNFENMSNDDAVRVLREIVSQTGPISLTVAKCWDPTPRSYFTIPRADPVRPIDPAAWLSHTAALTGALPRYGTSPCSSAVTRTSSSSLTSSVPGAPQLEEAPLTVKSDMGAVVRVMQLPDSGLEIRDRMWLKITIANAVIGADVVDWLYAHLEGFRERREARKYASSMLKRGFLRHTVNKVTFSEQCYYVFGDLCSNLAALNLNSGSSGASDQDTLAPLPHPAAPWPLGQGYPYQYPGPPPCFPPAYQDPGFGYGSGSAGSQQSEGSKSSGSTRSAGGSSRRALGREKESRSAGAGGSGSESDHTVPSGAGGSGWRERPPSQLSRGSSPRSQASAAAPGLPPLHPLTKAYSVVGGPPGGPPVRELAAVPPELTGSRQSFQKAMGNPCEFFVDIM |
